# The full ranking holds about 33,000 sequences; the median of “E-score (-0.5 to 0.5)” is about -0.0014, and the highest 2% start at about 0.25. Some of the results follow.
# Target: T1, Cad1 (UniProt P24813)
# T1 sequence: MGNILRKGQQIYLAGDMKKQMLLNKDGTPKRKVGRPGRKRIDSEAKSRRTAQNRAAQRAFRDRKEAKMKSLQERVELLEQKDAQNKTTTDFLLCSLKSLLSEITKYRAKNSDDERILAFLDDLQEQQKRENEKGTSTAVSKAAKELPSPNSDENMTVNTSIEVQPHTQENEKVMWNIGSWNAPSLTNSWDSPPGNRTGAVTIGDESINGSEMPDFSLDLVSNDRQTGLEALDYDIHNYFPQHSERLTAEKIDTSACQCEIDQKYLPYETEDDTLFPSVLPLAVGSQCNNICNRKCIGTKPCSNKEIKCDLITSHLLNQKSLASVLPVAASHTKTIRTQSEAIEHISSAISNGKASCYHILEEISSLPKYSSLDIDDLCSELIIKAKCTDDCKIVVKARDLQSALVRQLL
# Experiment: PBM E-score (8-mer binding enrichment) (E-score (-0.5 to 0.5)); higher = stronger / more preferred TF binding
# Details: protein concentration: 100 nM; construct: GST-full length
# In short: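 Universal all-10-mer Agilent arrays, double-stranded by primer extension on fresh or once-stripped slides, were probed with about 100-200 nM GST-tagged yeast transcription factors made by PURExpress. Fluorescent anti-GST detected bound protein, and masliner normalised the scans. E-scores from the Universal PBM Analysis Suite were given to each ungapped eight-base word pooled with its reverse complement.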
row,Sequence,PBM E-score
1,AGTCCATC,-0.0953
2,GTCGCTTA,0.22
3,GTGCCCTA,-0.282
4,AATCCCAG,0.0625
5,CTAGCGAC,0.0304
6,TATCGGAA,0.143
7,AACATGAC,0.1
8,ACCTGGCT,-0.201
9,CGTCGCGA,0.111
10,GCAGTATA,-0.0191
11,GAGTACGA,0.0492
12,GCCATGGA,-0.0388
13,TCGGCTCA,-0.00735
14,TCCGTGCA,0.126
15,GTGATGGA,-0.0232
16,AGTACTGG,-0.0662
17,ACATCGTA,-0.0947
18,ATTAAAGA,0.175
19,TCGTTCCA,-0.157
20,ATGTTTGC,-0.0905
21,ACATACGA,0.117
22,CGTTCCAC,-0.109
23,ACACAGCG,0.251
24,AGGCCTGG,-0.135
25,TAGTCCAA,-0.103

row,Sequence,PBM E-score
1,GAGTAGCA,0.121
2,CAAGCCAA,-0.0331
3,CTTAATTA,0.152
4,CAGACTAC,-0.0227
5,CAACCTTA,-0.0594
6,ATAGACTC,-0.177
7,ATACAACG,0.128
8,ATCATTTC,0.136
9,AACACCAA,0.122
10,AGTACAAG,-0.092
11,AAAGGCAC,-0.0104
12,CGCGTCGA,0.123
13,ACAGCACG,-0.0152
14,ACCGAGCG,-0.0942
15,CTAAAACC,0.0774
16,CGGCCTAG,-0.263
17,ACGTACGT,-0.0167
18,ACTACTCA,0.146
19,CTGTACCC,-0.0355
20,GGTAAAGA,0.143
21,AATGAGTA,0.214
22,ATAGCCAA,0.167
23,GCGGTGCA,-0.201
24,ATTAAATG,0.23
25,AATTTTAA,0.249

row,Sequence,PBM E-score
1,GGTTCGCA,-0.035
2,CTGGCTTA,-0.104
3,CGTCTGAA,0.0655
4,CTATTAGC,0.176
5,ACGATTTG,0.105
6,AAATGCCC,-0.228
7,ACCTTCCG,0.033
8,AACTGGGT,-0.0949
9,CAGGAATA,-0.0481
10,GGTCCGTA,-0.0697
11,CATTTTCA,0.101
12,ACACTCCC,-0.237
13,CGGACCTA,0.162
14,GGAATAAA,0.0586
15,GGGTCCAA,-0.165
16,ATCATAAA,0.0876
17,TAAGTACA,0.0719
18,CCAAGTTA,0.033
19,TTCCGAAA,0.0116
20,ATTTAATC,0.285
21,AATGGCCT,0.0563
22,GGATGGAA,-0.0674
23,ACATCCGG,0.0635
24,GCTTGGGA,-0.244
25,CGGACGCC,-0.0696

# As a working copy, part of the list above.
row,Sequence,PBM E-score
7,ACCTTCCG,0.033
8,AACTGGGT,-0.0949
9,CAGGAATA,-0.0481

# Fetched one by one from above:
row,Sequence,PBM E-score
25,CGGACGCC,-0.0696
13,CGGACCTA,0.162
22,GGATGGAA,-0.0674
11,CATTTTCA,0.101
2,CTGGCTTA,-0.104
21,AATGGCCT,0.0563
16,ATCATAAA,0.0876

# Following part:

row,Sequence,PBM E-score
1,ATCAGCAG,0.191
2,ACAGCGTC,0.0403
3,CACTGGAG,-0.168
4,AGGAGCCT,-0.34
5,GTGTCAAA,0.163
6,AAAGGCCG,-0.0244
7,ACGAGACA,-0.0322
8,ATACTTGG,-0.111
9,GGGGAGTA,-0.24
10,AATGGGTG,-0.0102
11,ATCTATGG,-0.242
12,CATTCCCG,0.144
13,ACTGTTCT,0.145
14,ATCAGTCG,0.117
15,CATTAACC,0.0603
16,ATGAATTA,0.107
17,CCTACGTC,-0.0661
18,AAAACCAA,0.0643
19,ATTCACTC,-0.0842
20,GACAAAAA,0.216
21,CGTTGCGC,0.176
22,GAATACAA,0.112
23,AGCGAAAT,-0.184
24,GCGAAAGA,-0.0989
25,ACGCCCTC,-0.067

row,Sequence,PBM E-score
1,ATTGGCTC,0.0265
2,ATCGGGGG,-0.474
3,CGAAGGTC,-0.15
4,AATTTAAG,0.0522
5,AATTCCAG,0.257
6,CATCCTCA,-0.13
7,CAGTGATA,0.0715
8,GTACGGGA,-0.196
9,AATCTCAC,-0.0928
10,ACATGTCC,0.0728
11,AAAAGCTT,-0.147
12,CAGTACAA,-0.0292
13,AAGAGAGA,-0.197
14,GCCGGTAC,0.00351
15,GTATACAA,0.127
16,GCGCATCC,-0.0757
17,CCATTGGG,-0.0892
18,GGCAGTAC,-0.177
19,ATTTCAAG,0.109
20,AGCGACCA,0.0127
21,CTCTGAAA,-0.00019
22,ATTAAGCC,0.176
23,CCGCCGAC,0.00504
24,ATCGAATC,0.122
25,GCAAATGC,-0.0592

row,Sequence,PBM E-score
1,CGGACGTA,-0.12
2,AATTAGGT,0.17
3,CGTTAGTC,0.042
4,ATCTCCCG,-0.0893
5,ACTAGGAA,-0.0774
6,AAACGCGG,0.0458
7,ATGGCTAA,0.00749
8,ATAGCTAA,0.0748
9,CTCTACAG,-0.115
10,CAGTTCTA,0.0289
11,AAGATTCT,-0.0858
12,GGATGTAC,-0.0446
13,GTTCACGA,0.0636
14,GCATTCGC,-0.227
15,AATGATCA,0.119
16,AACGGTAC,0.178
17,CTACTTTA,-0.0669
18,CTCGTGTC,-0.0216
19,AGCCAGCA,-0.312
20,TGAGTCAA,-0.043
21,GCCTCAGC,-0.0857
22,AATTATGC,0.0336
23,CATCTATA,-0.0909
24,GAGCAGTA,0.11
25,CCGCCCGG,-0.0789

row,Sequence,PBM E-score
1,ATTCCGGC,0.0166
2,CAAACACC,0.042
3,CAGCGTCC,0.064
4,GATGAGTA,0.0996
5,CAATCTGC,-0.0882
6,GACTCAAA,-0.0319
7,CTCTAAGA,-0.0506
8,CTATTATC,0.0972
9,AACGCTCA,-0.0578
10,CCACTTAG,0.021
11,CCTGCCCC,-0.336
12,CAAACCTC,-0.126
13,CGGGATGA,0.0883
14,CAGTTTAG,-0.0299
15,CTCAAAAC,-0.133
16,CCCTCGTC,-0.23
17,CGTCCTGA,-0.00878
18,GATTCACA,-0.08
19,AAAACCTG,-0.1
20,GTCTCAAA,-0.0829
21,CAAAACCA,0.104
22,ATAAGTGC,0.0702

# — the supplement of paper PMC3334620
